Results reported in the supplement of paper PMC3334620.
In all, about 33,000 sequences were measured (“E-score (-0.5 to 0.5)”: median about -0.0059, highest 2% from about 0.26 on). The list shows a part of the results.

Target: T1, Cin5 (UniProt P40917)
T1 sequence: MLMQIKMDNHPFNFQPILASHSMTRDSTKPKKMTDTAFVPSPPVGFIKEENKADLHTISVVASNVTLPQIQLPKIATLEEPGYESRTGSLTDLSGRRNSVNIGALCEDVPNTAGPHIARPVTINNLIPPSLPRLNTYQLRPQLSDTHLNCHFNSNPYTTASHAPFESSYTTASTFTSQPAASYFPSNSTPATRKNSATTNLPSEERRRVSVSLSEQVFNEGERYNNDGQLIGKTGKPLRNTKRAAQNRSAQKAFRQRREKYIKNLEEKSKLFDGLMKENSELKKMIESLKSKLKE
Experiment: PBM E-score (8-mer binding enrichment) (E-score (-0.5 to 0.5)); higher = stronger / more preferred TF binding
Settings: protein concentration: 100 nM; construct: GST-full length
Outline: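 Universal all-10-mer Agilent arrays, double-stranded by primer extension on fresh or once-stripped slides, were probed with about 100-200 nM GST-tagged yeast transcription factors made by PURExpress. Fluorescent anti-GST detected bound protein, and masliner normalised the scans. E-scores from the Universal PBM Analysis Suite were given to each ungapped eight-base word pooled with its reverse complement.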

Sequence	PBM E-score
GCAACGCA	-0.268
AAGGTGGA	-0.0706
AATGGCGC	0.0304
CGGTAAAC	-0.109
CGATTACA	0.177
ATGCCAAA	-0.0697
ATCCTGAA	0.104
AGACATCG	-0.124
CGACGTAA	0.0693
GTCCCCGA	-0.0313
CGACTCAA	0.0867
ACCGGTAT	0.0261
CACAGCAA	0.225
ACTGCTAT	0.123
TAGACTCA	-0.0692
ACTCGGTC	0.0248
GCGCAAGC	-0.075
ACGCTTAA	0.00396
ACACCAGC	-0.139
AACTCGCG	0.194
ACTAGTCC	0.116
CTAATACC	0.104
GCCTACTA	0.0349
ATTAGTTG	0.241
GGGTAAGA	-0.0563

Sequence	PBM E-score
TACCATCA	-0.0241
CGCTTTGA	0.0203
AGGGGACC	-0.229
ATAATAAA	0.24
AGCAACCA	0.197
CGGTGACC	-0.223
AAATCGGC	0.0822
AGTATTAG	0.275
AAAAACCT	0.145
CTGCCCGA	-0.00627
AAAGGGTA	0.0225
AAGCGCCC	-0.0213
CAAGGGGA	-0.0692
CGAGTCTA	-0.247
TCAAATCA	0.146
ATTGCCTG	0.0952
GAACATTA	0.146
AGGGCCTG	-0.298
CCATCACA	-0.0582
AACTGATG	0.108
CACGGATG	-0.0165
GTACGAAA	0.00511
ACTCTAGG	-0.193
GAACTATA	0.25
CCGAGAGA	0.0415

Sequence	PBM E-score
CGGACAGC	0.0135
ACGCGCGA	0.0689
AGTTATAT	0.196
AACTCATA	0.0893
AAAGAGCA	0.051
CGGGACAG	0.00791
AGCGCCAA	-0.104
GTTGCTCA	0.00634
GAGTTTCC	-0.0545
ACAGAGTC	0.0661
GTTACCAA	0.0591
ACTCACCT	-0.046
CGGTATAC	-0.0259
GGTATGCA	-0.0414
CAGTATGC	0.0107
TATCTCGA	0.0911
AGTGTAAA	0.0996
CGCTTGGA	-0.0635
GGCTCGAC	-0.163
GCCTCACC	-0.108
AGAGGCCT	-0.28
ATCGATGG	0.118
AAGGTTGC	-0.0959
GTGCCAGA	-0.293
GCAGCAAA	-0.0847

Sequence	PBM E-score
GATCCTCC	-0.2
ACTCTAAT	0.0832
ACTCCAAC	0.107
GGGCCCAA	-0.0478
CACGTGTC	-0.152
CGGGGGGC	-0.356
GGGATTGA	-0.0508
AAATCTAA	0.0371
AGTTTTGA	0.0556
CTTCAGAA	0.0169
CCCCACCC	0.153
CCCTACGC	-0.224
GCCTGAAC	-0.289
GGGCCACC	-0.167
GTGTTTCA	-0.124
CTCGGCGA	0.0665
AAAGGAAA	0.188
ATGTAACA	0.232
AGGAAGGC	-0.164
GCTATAAC	-0.0874
ACCTTCGG	-0.019
CCATATTC	-0.0364
ATCAGCCC	0.0897
CAATGTCC	-0.088
AACTGGGT	-0.068

Sequence	PBM E-score
ACCTTCCG	0.0586
AAATGCCC	-0.0815
ACGATTTG	0.155
CTATTAGC	0.155
CGTCTGAA	-0.133
AATTTTAA	0.173
GGTTCGCA	-0.122
CTGGCTTA	-0.0304
GGTAAAGA	0.104
CTGTACCC	-0.142
ATTAAATG	0.245
AATGAGTA	0.24
GCGGTGCA	-0.225
ATAGCCAA	0.166
ACAGCGTC	0.00869
CACTGGAG	-0.2
AGGAGCCT	-0.382
ATCAGCAG	0.197
CGGACGCC	-0.22
ACATCCGG	0.0742
GCTTGGGA	0.00656
AATGGCCT	0.0447
GGATGGAA	-0.0365
ATTTAATC	0.249
CCAAGTTA	0.0982

Sequence	PBM E-score
TTCCGAAA	0.021
ATCATAAA	0.131
GGAATAAA	0.0744
CGGACCTA	0.0341
GGGTCCAA	-0.0685
TAAGTACA	0.149
ACACTCCC	-0.0629
CATTTTCA	0.197
GGTCCGTA	-0.149
CAGGAATA	0.0439
CAGACTAC	-0.154
CTTAATTA	0.0921
CAACCTTA	0.117
ATAGACTC	-0.171
CAAGCCAA	0.0487
GAGTAGCA	0.0893
TAGTCCAA	-0.0825
AGGCCTGG	-0.274
ACACAGCG	0.113
CGTTCCAC	-0.189
ATTAAAGA	0.138
TCGTTCCA	-0.27
ATGTTTGC	0.0258
AGTACTGG	-0.156
ACATCGTA	0.0136

Five entries drawn at random from the list so far:
Sequence	PBM E-score
ATTAAAGA	0.138
TCGTTCCA	-0.27
GGAATAAA	0.0744
ACATCGTA	0.0136
CAAGCCAA	0.0487

Carrying on:

Sequence	PBM E-score
ACATACGA	0.137
TCCGTGCA	0.0872
GTGATGGA	0.0255
CTAAAACC	-0.111
CGGCCTAG	-0.0903
ACGTACGT	0.0514
ACTACTCA	0.112
ACCGAGCG	-0.0819
CGCGTCGA	0.0758
ACAGCACG	-0.0485
AAAGGCAC	-0.136
AGTACAAG	0.0267
AACACCAA	0.135
ATCATTTC	0.264
ATACAACG	0.174
AGGACTAG	-0.0929
GATGCACC	-0.029
CGTTTGTC	0.0128
GATTGCCC	-0.0542
CTAACCAC	-0.0985
ACTGCTTC	-0.123
AATGTTCA	0.074
CAAGAAGG	-0.0614
GTGGACCA	-0.0436
CACTCTGC	0.0346

Sequence	PBM E-score
CGGGGGCC	-0.368
GGTCGGTA	-0.0138
AGACTGAT	0.0117
CGTCAAGC	-0.155
GTCCGTGA	-0.0178
GAGTACGA	0.0997
GCCATGGA	-0.104
TCGGCTCA	-0.0984
GCAGTATA	0.107
CGTCGCGA	0.0627
ACCTGGCT	-0.137
AACATGAC	0.196
TATCGGAA	0.143
GTCGCTTA	0.177
GTGCCCTA	-0.2
AATCCCAG	-0.00941
CTAGCGAC	-0.11
AGTCCATC	-0.0838
GTCTTTAA	-0.00854
CCGTATAG	-0.175
CTACGTGC	-0.0915
ATTTTATG	0.208
GCAGAAGA	-0.0227
AGACATAA	0.124
CCAGTACG	-0.0793

Sequence	PBM E-score
ATCGCGGG	0.0556
AGTCTGAG	-0.28
AGTTAAGG	0.111
ACATAGCA	0.0903
ACTGCTCG	0.0493
CTATTTAA	-0.0553
TAGGAATA	-0.00255
AGTCAGGA	0.0328
AGGGAAGC	-0.171
TCGAGAAA	0.0197
GCGGGGAA	0.0829
AGAAAAAG	-0.0274
CTGCCAAG	-0.153
GAAGGCCC	-0.33
CCTTCCCG	-0.103
CGGGCCGA	-0.152
TCCTAGCA	-0.176
CCGAATGC	-0.0331
TTCAAGAA	0.00208
GGTTGTAA	0.0455
CTATGCAG	-0.0652
AAAATTGT	0.139
AAGAGGAT	-0.139
ACAAGATC	-0.124
TACTGGCA	-0.233

Sequence	PBM E-score
GAGGGCAA	0.0161
TACTCGGA	0.115
CACCTAGA	-0.101
AACCTACA	0.109
AGGAACAC	-0.0084
AGTCATTC	0.0712
ATGCGACG	-0.0966
CTTACGAA	0.26
AGGTAGTA	0.102
CAGCCCGA	-0.135
ACGCAGCG	-0.174
AACACTGG	-0.0449
CGATGGAA	0.0127
ACTCTTCC	-0.24
ACAGCCAG	-0.0281
ATTCATCA	0.221
GAGTAGAA	0.0563
GAAGACCA	-0.0788
ATAAGAGC	0.181
CGGAAGGC	-0.178
ACGCGGCC	-0.184
GCGCACCA	0.0468
CCTGCTAA	-0.187
AGCCGTAA	0.0779
TCTAAACA	-0.115

Sequence	PBM E-score
GTATGTCA	0.175
GAGCAGCC	-0.169
AGGCCGTA	-0.0235
CGCATGCA	0.144
AGCGGTGA	-0.135
ACTAAGAG	-0.0246
AGTAATAA	0.193
GATTTCGA	0.11
CAGAACAG	0.167
AGAAAGAC	0.0383
GAAATGCC	0.0239
CTACATCC	0.0132
CATAAGTC	0.0502
CAGTACAC	0.0208
AATAGTGC	0.122
GGACGTCC	0.0213
CCCCAACC	-0.0681
CCCGGGAG	-0.179
GTGTCAGA	-0.0558
GTACTGCA	-0.0881
ACTGCTCT	-0.0719
GACCAATC	0.101
GACGTGCC	-0.25
TCCCTGCA	0.0413
AGGGGGTC	-0.459

Look-ups from above:
Value for GTATGTCA under PBM E-score: 0.175
Value for AATAGTGC under PBM E-score: 0.122
Value for GATTTCGA under PBM E-score: 0.11
Value for AGCGGTGA under PBM E-score: -0.135
Value for ACTGCTCT under PBM E-score: -0.0719
Value for GAGCAGCC under PBM E-score: -0.169
Value for GACCAATC under PBM E-score: 0.101

(cont.)

Sequence	PBM E-score
ATGGCCTA	-0.0413
ATTAACGG	0.0948
GTTGAGAA	0.00602
ACGAAACC	0.184
CAGGTCGA	0.0591
ACTTCTCG	0.0826
AACTCGTC	0.0765
GGATTCGA	-0.205
AAGTTGAG	0.0781
AAGACTGT	-0.186
CCATTTAA	0.0977
ATCCTTGG	0.085
AGAAAAAA	0.00216
CACTCAGC	0.0793
GCACCGAA	0.0053
AATTCGAG	-0.129
AGGGGCAA	-0.0834
AGTGTTGA	0.167
AAGTGATG	0.0728
CAGGGTTC	-0.071
CATTGGGG	-0.0653
AAAGCGAA	0.194
ATCCATTC	0.127
AGTCTAGG	-0.244
GGGACCGA	-0.154

Sequence	PBM E-score
GGTATTAC	0.271
CGTACTGC	-0.0186
AATACCCA	0.163
AAACAAGG	-0.0987
TATTTAAA	0.242
GTAAGACA	0.111
AATTGCAC	0.177
AGTTCCAA	-0.0924
GCAACGGA	0.117
GTTTGAGA	0.0852
CAGTACCG	-0.106
TAAGCAAA	0.192
ATAGAAGC	-0.00312
CGTAGAAC	-0.251
AACTCACC	0.0692
ACAATCTC	0.0307
GAAAAATC	0.154
CTGTCTAC	0.0024
GACGTTTA	0.0501
ACTGGCCG	-0.174
AGGATGTA	0.166
GTCCTGGA	-0.264
ACCTGTAT	0.0163
AAAATCGG	0.0238
GACGATGA	-0.101

Sequence	PBM E-score
CCGCGTTC	0.0509
AGCGGTAG	-0.15
CAGGGGGC	-0.383
GCCCGCGA	-0.00677
CTTCTCCA	-0.0877
AGTTCCCA	0.147
AGGGTCCG	-0.218
ACAGGTGA	0.152
CATATCGG	-0.0521
TGTGTCAA	-0.0182
CAGGACGC	-0.18
CAAATATA	0.166
CGCGATGC	-0.288
GGCCGCGA	-0.196
AGGAATTG	0.148
CAGCTGAA	0.0137
ATCCCGGG	0.0898
CCGAGTAG	0.146
ATCTCCGA	0.138
